Our source for the binding values is article PMC4676809.

What all share (experiment): two-hybrid; Gal4 DB baits in S. cerevisiae Y8930 and Gal4 AD preys in Y8800, pairwise mated in a crosswise matrix; growth on YNB -LTH but not on -LH with cycloheximide scored as positive; autoactivators removed
For test [1], the target named is PaGG3, Picea abies C-type Gγ-subunit (Picea abies) (UniProt X2D807).
Test [2] has as its target PaGG1, Picea abies A-type Gγ-subunit (Picea abies) (UniProt X2D846).
Test [3] deals with PaGG4, Picea abies C-type Gγ-subunit (Picea abies) (UniProt X2D8C5).
Test [4] deals with PaGG2, Picea abies conifer-specific short Gγ-subunit (Picea abies) (UniProt X2D7V7).
Test [5] deals with PaHGB1, Picea abies heterotrimeric G-protein Gβ-subunit (Picea abies) (UniProt X2D873).

No constants are given. Whether binding was seen depends on the method and setting. A result given as binding can be weak or reduced; the word gives no strength.

“PaGG2, Picea abies conifer-specific short Gγ-subunit (from UniProt X2D7V7)”: the results for the binding result in test [1], in test [2] and in test [3] were “no binding”, “binds” and “no binding”, respectively.
For the substance “PaGPA1, Picea abies heterotrimeric G-protein Gα-subunit (from UniProt A0A0N7B0N5)”, the binding entry in test [4], in test [5], in test [1], in test [2] and in test [3] was “binds” each time.
Turning to “PaHGB1, Picea abies heterotrimeric G-protein Gβ-subunit (from UniProt X2D873)”, the binding entry in test [4] is “no binding”; in test [1], “binds”; in test [2] it was “binds”; in test [3] it was “binds”.
